From publication doi:10.1101/2019.12.16.876623 (bioRxiv, 2019) come the findings set out here.

This experiment addresses T1, Mlh3-Flag (Mlh3 with an internal His6-Flag3 tag) (S. cerevisiae) (UniProt Q12083).
T1 sequence: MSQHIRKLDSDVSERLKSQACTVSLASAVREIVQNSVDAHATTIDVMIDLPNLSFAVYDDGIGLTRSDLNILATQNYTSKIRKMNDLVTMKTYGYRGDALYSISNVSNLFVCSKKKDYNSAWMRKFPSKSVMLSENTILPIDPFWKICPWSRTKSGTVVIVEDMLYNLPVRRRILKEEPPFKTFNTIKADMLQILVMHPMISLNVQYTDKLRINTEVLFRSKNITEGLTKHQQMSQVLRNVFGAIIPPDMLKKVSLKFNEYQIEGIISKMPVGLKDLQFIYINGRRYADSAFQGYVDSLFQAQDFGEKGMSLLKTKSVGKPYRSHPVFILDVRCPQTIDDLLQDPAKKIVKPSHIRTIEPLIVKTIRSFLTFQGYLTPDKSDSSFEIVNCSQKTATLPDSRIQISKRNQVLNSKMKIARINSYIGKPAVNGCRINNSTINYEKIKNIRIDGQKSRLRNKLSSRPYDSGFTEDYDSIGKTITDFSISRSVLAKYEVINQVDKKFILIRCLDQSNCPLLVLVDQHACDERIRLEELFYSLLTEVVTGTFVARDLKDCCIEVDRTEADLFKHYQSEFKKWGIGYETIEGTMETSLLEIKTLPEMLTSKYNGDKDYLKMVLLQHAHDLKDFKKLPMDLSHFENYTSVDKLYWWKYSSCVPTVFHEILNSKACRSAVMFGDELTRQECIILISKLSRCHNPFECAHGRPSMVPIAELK
As to the kind of experiment: affinity purification with mass spectrometry.

These are yes or no findings as the source states them, for the method shown. Binding seen in cells or lysates may run through a third protein. These calls come from enrichment with a bait or labelling near it, and not all partners need be listed. Where a sequence is shown, tags or fusion partners need not be part of it.

B1: Pms1 (found by mass spectrometry in the Mlh3-Flag pull-down) (protein, UniProt P14242 1-873)
chain: MTQIHQINDIDVHRITSGQVITDLTTAVKELVDNSIDANANQIEIIFKDYGLESIECSDNGDGIDPSNYEFLALKHYTSKIAKFQDVAKVQTLGFRGEALSSLCGIAKLSVITTTSPPKADKLEYDMVGHITSKTTTSRNKGTTVLVSQLFHNLPVRQKEFSKTFKRQFTKCLTVIQGYAIINAAIKFSVWNITPKGKKNLILSTMRNSSMRKNISSVFGAGGMRGLEEVDLVLDLNPFKNRMLGKYTDDPDFLDLDYKIRVKGYISQNSFGCGRNSKDRQFIYVNKRPVEYSTLLKCCNEVYKTFNNVQFPAVFLNLELPMSLIDVNVTPDKRVILLHNERAVIDIFKTTLSDYYNRQELALPKRMCSQSEQQAQKRLKTEVFDDRSTTHESDNENYHTARSESNQSNHAHFNSTTGVIDKSNGTELTSVMDGNYTNVTDVIGSECEVSVDSSVVLDEGNSSTPTKKLPSIKTDSQNLSDLNLNNFSNPEFQNITSPDKARSLEKVVEEPVYFDIDGEKFQEKAVLSQADGLVFVDNECHEHTNDCCHQERRGSTDTEQDDEADSIYAEIEPVEINVRTPLKNSRKSISKDNYRSLSDGLTHRKFEDEILEYNLSTKNFKEISKNGKQMSSIISKRKSEAQENIIKNKDELEDFEQGEKYLTLTVSKNDFKKMEVVGQFNLGFIIVTRKVDNKYDLFIVDQHASDEKYNFETLQAVTVFKSQKLIIPQPVELSVIDELVVLDNLPVFEKNGFKLKIDEEEEFGSRVKLLSLPTSKQTLFDLGDFNELIHLIKEDGGLRRDNIRCSKIRSMFAMRACRSSIMIGKPLNKKTMTRVVHNLSELDKPWNCPHGRPTMRHLMELRDWSSFSKDYEI
As for B1, the binding result is recorded as “binds”.
